In article PMC10609148 (Molecules, 2023):

Tested on: human recombinant Cb5R with a His6-tag
Experiment: FRET between FAD of His6-tagged Cb5R and Aβ(1–42) HiLyte-Fluor555
Format: binding
Conditions: random orientation
Procedure: The assay buffer was 20 mM phosphate/0.1 mM diethylenetriaminepentaacetic acid (pH 7).

## Aβ(1–42) HiLyte^TM-Fluor555: Human Aβ(1–42) with HiLyte-Fluor555 dye covalently bound to ASP1; AnaSpec
1 acceptor per donor
  distance FAD to HiLyte-Fluor555: 2.35 nm
2 equidistant acceptors per donor
  distance FAD to HiLyte-Fluor555: 3.1 nm
